# Measured values published in the supplement of paper PMC10735217.
# Some of the results follow. This data set is noisy: repeats of one test often differ as much as different tests do.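 Human kidney-derived cells stably carry a construct in which eight TEAD-binding elements drive luciferase, measured by luminescence in a drug-repurposing library screen. A hit is any compound whose signal exceeds the plate mean by more than five robust Z scores.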
# Tested on: HEK293A TEAD-LUC reporter
# Assay: TEAD-luciferase reporter activity (YAP activation), robust Z score vs plate; higher = stronger YAP/TEAD activation
# Conditions: 24 h
Compound,TEAD-luciferase reporter activity (compound concentration: 200 nM),TEAD-luciferase reporter activity (compound concentration: 2 uM),TEAD-luciferase reporter activity (compound concentration: 10 uM)
O=[As](O)(O)c1ccc(NCCNc2ccc([As](=O)(O)O)cc2)cc1,inactive: -1.02,inactive: 0.804,inactive: -1.64
CNC(C)CC1CCCC1 (stereo not drawn),inactive: 0.262,inactive: 1.7,active: 5.34
CC(N)Cc1c[nH]c2ccc(OCc3cccs3)cc12 (stereo not drawn),inactive: -0.425,inactive: 2.21,inactive: -0.0808
CC(C)n1c(N2CCNCC2)nc2cc(N)ccc21,inactive: 1.15,inactive: -1.14,inactive: -0.892
CC(Cc1ccccc1)NC(C#N)c1ccccc1 (stereo not drawn),inactive: -0.572,inactive: -0.795,inactive: -0.955
NC(=O)C1CC(=O)NCCCC(NC(=O)C(N)Cc2ccc(O)cc2)C(=O)NC(Cc2ccccc2)C(=O)N1 (stereo not drawn) [Pharmaprojects No. 1890],inactive: 0.294,inactive: -0.325,inactive: -0.115
CNCC(O)c1ccc(O)c(OC)c1 (stereo not drawn),inactive: -0.258,inactive: -0.858,inactive: -0.991
Nc1ccccc1C(=O)OCCC1CCCCN1 (stereo not drawn),inactive: -0.106,inactive: 1.17,inactive: -1.05
CCCCN1CCC(OC(=O)CC)(c2ccccc2)C1C (stereo not drawn),inactive: 0.573,inactive: -0.256,inactive: 1.17
CCC1(C2=NCCN2)Cc2ccccc2O1 (stereo not drawn),inactive: 1.07,–,inactive: 0.0462
CCC1(C2=NCCN2)Cc2ccccc2O1 (stereo not drawn) [Efaroxan],–,inactive: -0.63,–
CCNCC(O)c1cccc(OC(=O)C(C)(C)C)c1 (stereo not drawn) [Etilefrine pivalate],inactive: 0.0102,inactive: -0.655,inactive: -1.42
Nc1ccc([As](=O)(O)O)cc1,inactive: 2.02,inactive: 1.58,inactive: 0.178
CC1CCC(CN)(CC(=O)O)C1 (stereo not drawn),inactive: -1.98,inactive: -1.85,inactive: -0.196
OC1(c2ccc(Cl)cc2)c2ccccc2C2=NCCN21 (stereo not drawn) [mazindol],inactive: 2.03,inactive: 2.82,inactive: 4.13
CN1[C@@H]2CC[C@H]1C[C@@H](NC(=O)c1cnc3ccccc3c1O)C2,inactive: -0.765,inactive: 0.916,inactive: 0.0922
CCCC[C@@H](NC(=O)[C@@H](Cc1ccccc1)NC(=O)[C@H](N)Cc1ccccc1)C(=O)N[C@H](CCCNC(=N)N)C(N)=O,inactive: -0.607,inactive: -1.44,inactive: 0.405
CC(C)NC(=O)N1CCCC1C(=O)N1CCC(N2CCCC2=O)CC1 (stereo not drawn),inactive: 0.352,–,–
O=C(C1CCCN1C(=O)Cc1cccc(Cl)c1)N1CCC(N2Cc3ccccc3C2=O)CC1 (stereo not drawn),inactive: -3.01,–,inactive: -0.58
C=C(/C=N/NC(=N)N)NNC(=N)N [Mitoguazone],inactive: 0.984,inactive: -1.21,inactive: -1.91
N#Cc1ccc(Nc2ncnc3c2CCC3O)cc1 (stereo not drawn),inactive: -0.59,inactive: -0.778,inactive: 0.239
CCCOC(=O)Cc1ccc(OCC(=O)N(CC)CC)c(OC)c1,inactive: 0.522,inactive: 0.651,inactive: 3.98
CCOCn1c([Se]c2cc(C)cc(C)c2)c(C(C)C)c(=O)[nH]c1=O,inactive: -0.281,inactive: -0.344,inactive: -0.506
CCN(CC)C(=S)SC(=S)N(CC)CC,inactive: -0.513,inactive: -1.16,inactive: -3.66
CC(Cc1ccc2c(c1)OCC(C(=O)O)O2)NCC(O)c1cccc(Cl)c1 (stereo not drawn),inactive: -0.668,inactive: -1.96,inactive: -1.02
Cc1ccccc1-n1c(C)nc2ccccc2c1=O [Quaalude],–,inactive: -1.07,–
Cc1ccccc1-n1c(C)nc2ccccc2c1=O,inactive: 0.736,–,inactive: -1.43
N#CC(CCN1CCC(C(=O)O)(c2ccccc2)C1)(c1ccccc1)c1ccccc1 (stereo not drawn),inactive: -1.78,inactive: -0.537,inactive: -0.0626
CC[C@@H]1/C=C/C=C/C[C@H](C)[C@@H](O)[C@](C)(O)C(=O)[C@H](C)[C@@H](O)[C@H](C)C(=O)[C@H](C)[C@@H](O)[C@H](C)/C=C/C(=O)O[C@H]2[C@@H](C)[C@@H](CC1)O[C@]1(O[C@H](C[C@H](C)O)[C@H](C)CC1=O)[C@@H]2C,–,inactive: -0.762,–
CC[C@@H]1/C=C/C=C/C[C@H](C)[C@@H](O)[C@](C)(O)C(=O)[C@H](C)[C@@H](O)[C@H](C)C(=O)[C@H](C)[C@@H](O)[C@H](C)/C=C/C(=O)O[C@H]2[C@@H](C)[C@@H](CC1)O[C@]1(O[C@H](C[C@H](C)O)[C@H](C)CC1=O)[C@@H]2C [Oligomycin B],inactive: 0.242,–,inactive: 3.4

# Part of the list above, tab-delimited:
Compound	TEAD-luciferase reporter activity (compound concentration: 200 nM)	TEAD-luciferase reporter activity (compound concentration: 2 uM)	TEAD-luciferase reporter activity (compound concentration: 10 uM)
CC(C)NC(=O)N1CCCC1C(=O)N1CCC(N2CCCC2=O)CC1 (stereo not drawn)	inactive: 0.352	–	–
O=C(C1CCCN1C(=O)Cc1cccc(Cl)c1)N1CCC(N2Cc3ccccc3C2=O)CC1 (stereo not drawn)	inactive: -3.01	–	inactive: -0.58
